Source: PubChem BioAssay AID504764 (Drosophila RNAi Screening Center, 2011)
Aim: 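Genes whose knock-down alters Notch-dependent transcription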 (primary screen). Cell system: Drosophila Kc167 cells. Reagent: long dsRNA against Drosophila genes. Timing: about 5 days (4 days dsRNA, then 24 h after transfection). Treatment: transfection of constitutively active membrane-tethered Notch lacking the extracellular domain, read 24 h later. Detection: 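Light from a Notch-responsive E(spl)m3 luciferase reporter under active Notch, with control-promoter and no-Notch reporter wells to normalise; raw counts from paired wells a and b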. Reading the numbers: induced reporter light, run 1, well a and induced reporter light, run 1, well b: higher = more light from the Notch target reporter with active Notch; control promoter light, run 1, well a and control promoter light, run 1, well b: higher = more light from the viral control promoter (cell number, transfection, viability); uninduced reporter light, run 1, well a: higher = more light from the Notch target reporter without active Notch. Active means: 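Hit if the duplicate-averaged log2 ratio of induced to control-promoter light gives a plate-wise z beyond ±2, or induced to uninduced beyond ±1.8; weak-control or discordant-duplicate wells dropped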. Calls: active = modifier hit (raised or lowered Notch signal); inactive = not a hit.
In all, the deposit lists about 22,000 reagents; this is an unselected part of those with a known target gene and a result. Of all reagents, 403 (1.9%) were called active. 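Unnormalised raw counts per well; ratio z-scores behind the hit calls and whether each hit raises or lowers signal are not deposited.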 Entries without a mark were called inactive. Not stated in the record: the amount of reagent.

For dmrt93B [DRSC15865], how do the results read?
induced reporter light, run 1, well a: 1.85e5; induced reporter light, run 1, well b: 1.97e5; control promoter light, run 1, well a: 2.24e5; control promoter light, run 1, well b: 2.03e5; uninduced reporter light, run 1, well a: 14835

How did the screen score Pxd [DRSC16805]?
induced reporter light, run 1, well a: 2.76e5; induced reporter light, run 1, well b: 3.09e5; control promoter light, run 1, well a: 3.19e5; control promoter light, run 1, well b: 3.35e5; uninduced reporter light, run 1, well a: 23278

How did the screen score Tsp42Eh [DRSC06190]?
induced reporter light, run 1, well a: 1.26e5; induced reporter light, run 1, well b: 1.41e5; control promoter light, run 1, well a: 2.05e5; control promoter light, run 1, well b: 1.71e5; uninduced reporter light, run 1, well a: 12210

For CG2812 [DRSC04319], how do the results read?
induced reporter light, run 1, well a: 1.95e5; induced reporter light, run 1, well b: 1.76e5; control promoter light, run 1, well a: 1.45e5; control promoter light, run 1, well b: 1.62e5; uninduced reporter light, run 1, well a: 12615

With tra [DRSC11405], what was measured?
induced reporter light, run 1, well a: 1.69e5; induced reporter light, run 1, well b: 1.76e5; control promoter light, run 1, well a: 2.14e5; control promoter light, run 1, well b: 2.17e5; uninduced reporter light, run 1, well a: 11715

With LIMK1 [DRSC19811], what was measured?
induced reporter light, run 1, well a: 1.88e5; induced reporter light, run 1, well b: 1.75e5; control promoter light, run 1, well a: 2.47e5; control promoter light, run 1, well b: 1.87e5; uninduced reporter light, run 1, well a: 14805

What is on record for alphaTub67C [DRSC11321]?
induced reporter light, run 1, well a: 1.71e5; induced reporter light, run 1, well b: 1.31e5; control promoter light, run 1, well a: 2.26e5; control promoter light, run 1, well b: 1.95e5; uninduced reporter light, run 1, well a: 11740

Which result is listed for CG12164 [DRSC06115]?
induced reporter light, run 1, well a: 1.66e5; induced reporter light, run 1, well b: 1.84e5; control promoter light, run 1, well a: 1.67e5; control promoter light, run 1, well b: 2.02e5; uninduced reporter light, run 1, well a: 14575

For CG4364 [DRSC02742], what does the deposit list?
induced reporter light, run 1, well a: 1.45e5; induced reporter light, run 1, well b: 1.40e5; control promoter light, run 1, well a: 1.50e5; control promoter light, run 1, well b: 1.59e5; uninduced reporter light, run 1, well a: 10332

How did the screen score otu [DRSC18811]?
induced reporter light, run 1, well a: 1.68e5; induced reporter light, run 1, well b: 1.53e5; control promoter light, run 1, well a: 2.79e5; control promoter light, run 1, well b: 2.57e5; uninduced reporter light, run 1, well a: 11655

What did the screen give for Gcat [DRSC09719]?
induced reporter light, run 1, well a: 1.42e5; induced reporter light, run 1, well b: 1.02e5; control promoter light, run 1, well a: 1.78e5; control promoter light, run 1, well b: 1.06e5; uninduced reporter light, run 1, well a: 7215

How did the screen score CG31076 [DRSC16017]?
induced reporter light, run 1, well a: 1.26e5; induced reporter light, run 1, well b: 1.37e5; control promoter light, run 1, well a: 1.89e5; control promoter light, run 1, well b: 1.82e5; uninduced reporter light, run 1, well a: 10520

How did the screen score Chd3 [DRSC11114]?
induced reporter light, run 1, well a: 1.13e5; induced reporter light, run 1, well b: 94280; control promoter light, run 1, well a: 1.22e5; control promoter light, run 1, well b: 1.13e5; uninduced reporter light, run 1, well a: 8685

Which result is listed for CG7457 [DRSC10849]?
induced reporter light, run 1, well a: 1.81e5; induced reporter light, run 1, well b: 1.64e5; control promoter light, run 1, well a: 1.90e5; control promoter light, run 1, well b: 1.83e5; uninduced reporter light, run 1, well a: 8515

For PGAP5 [DRSC03089], what was measured?
induced reporter light, run 1, well a: 1.64e5; induced reporter light, run 1, well b: 2.10e5; control promoter light, run 1, well a: 1.20e5; control promoter light, run 1, well b: 1.31e5; uninduced reporter light, run 1, well a: 22995

Which result is listed for Vha100-4 [DRSC16282]?
induced reporter light, run 1, well a: 2.12e5; induced reporter light, run 1, well b: 1.93e5; control promoter light, run 1, well a: 1.95e5; control promoter light, run 1, well b: 2.28e5; uninduced reporter light, run 1, well a: 13780

For Ir7c [DRSC18007], how do the results read?
induced reporter light, run 1, well a: 1.70e5; induced reporter light, run 1, well b: 1.84e5; control promoter light, run 1, well a: 3.27e5; control promoter light, run 1, well b: 3.24e5; uninduced reporter light, run 1, well a: 12040

For PpY-55A [DRSC07513], what does the deposit list?
induced reporter light, run 1, well a: 1.18e5; induced reporter light, run 1, well b: 1.07e5; control promoter light, run 1, well a: 1.26e5; control promoter light, run 1, well b: 1.26e5; uninduced reporter light, run 1, well a: 9300

2 consecutive reagents from above, for reference:
Gcat [DRSC09719] → induced reporter light, run 1, well a: 1.42e5; induced reporter light, run 1, well b: 1.02e5; control promoter light, run 1, well a: 1.78e5; control promoter light, run 1, well b: 1.06e5; uninduced reporter light, run 1, well a: 7215
CG31076 [DRSC16017] → induced reporter light, run 1, well a: 1.26e5; induced reporter light, run 1, well b: 1.37e5; control promoter light, run 1, well a: 1.89e5; control promoter light, run 1, well b: 1.82e5; uninduced reporter light, run 1, well a: 10520
